# The supplement of paper PMC10032668
# By UniProt entry, the sequences of proteins in these tests, tags left out.
# CAMP, P49913, UniProt P49913, whole entry: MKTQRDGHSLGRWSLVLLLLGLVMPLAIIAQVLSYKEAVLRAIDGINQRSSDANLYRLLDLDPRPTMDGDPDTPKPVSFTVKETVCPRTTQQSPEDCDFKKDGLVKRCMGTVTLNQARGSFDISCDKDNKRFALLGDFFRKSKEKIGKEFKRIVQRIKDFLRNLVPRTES
# CFDP1, Q9UEE9, UniProt Q9UEE9, whole entry: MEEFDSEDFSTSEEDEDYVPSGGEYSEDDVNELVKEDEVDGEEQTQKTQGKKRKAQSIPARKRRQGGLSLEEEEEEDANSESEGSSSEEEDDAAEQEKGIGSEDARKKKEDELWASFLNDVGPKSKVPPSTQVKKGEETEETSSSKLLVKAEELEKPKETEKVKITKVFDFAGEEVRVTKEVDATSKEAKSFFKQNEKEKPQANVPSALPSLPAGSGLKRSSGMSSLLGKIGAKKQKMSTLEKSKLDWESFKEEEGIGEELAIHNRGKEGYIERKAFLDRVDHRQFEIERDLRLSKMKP
# NCL, P19338, UniProt P19338, whole entry: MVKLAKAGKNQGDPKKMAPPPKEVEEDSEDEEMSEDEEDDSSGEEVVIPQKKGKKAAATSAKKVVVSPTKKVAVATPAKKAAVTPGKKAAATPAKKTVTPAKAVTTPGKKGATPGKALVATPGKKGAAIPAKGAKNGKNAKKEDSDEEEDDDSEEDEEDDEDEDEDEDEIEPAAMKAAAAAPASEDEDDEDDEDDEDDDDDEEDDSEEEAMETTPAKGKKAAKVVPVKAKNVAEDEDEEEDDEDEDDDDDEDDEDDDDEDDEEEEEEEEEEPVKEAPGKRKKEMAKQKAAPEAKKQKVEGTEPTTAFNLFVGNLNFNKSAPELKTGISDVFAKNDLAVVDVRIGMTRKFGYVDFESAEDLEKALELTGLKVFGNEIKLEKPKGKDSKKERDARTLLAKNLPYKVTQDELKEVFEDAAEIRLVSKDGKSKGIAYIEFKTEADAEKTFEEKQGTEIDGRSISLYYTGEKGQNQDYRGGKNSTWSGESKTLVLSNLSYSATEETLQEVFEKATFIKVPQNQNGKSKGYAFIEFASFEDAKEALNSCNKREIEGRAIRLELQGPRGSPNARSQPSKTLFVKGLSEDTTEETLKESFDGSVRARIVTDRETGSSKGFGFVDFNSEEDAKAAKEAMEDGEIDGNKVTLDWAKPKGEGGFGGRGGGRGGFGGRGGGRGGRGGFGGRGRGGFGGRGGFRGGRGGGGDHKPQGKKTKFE
# SET, Q01105, UniProt Q01105, whole entry: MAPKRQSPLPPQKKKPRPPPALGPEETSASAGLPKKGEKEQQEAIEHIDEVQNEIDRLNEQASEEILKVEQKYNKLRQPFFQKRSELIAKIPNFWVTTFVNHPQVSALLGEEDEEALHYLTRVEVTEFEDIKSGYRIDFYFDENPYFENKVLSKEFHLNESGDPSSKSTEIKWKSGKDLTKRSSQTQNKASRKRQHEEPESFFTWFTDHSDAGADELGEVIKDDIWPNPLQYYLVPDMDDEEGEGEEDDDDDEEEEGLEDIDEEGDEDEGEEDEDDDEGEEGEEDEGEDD
# SOD1, P00441, UniProt P00441, whole entry: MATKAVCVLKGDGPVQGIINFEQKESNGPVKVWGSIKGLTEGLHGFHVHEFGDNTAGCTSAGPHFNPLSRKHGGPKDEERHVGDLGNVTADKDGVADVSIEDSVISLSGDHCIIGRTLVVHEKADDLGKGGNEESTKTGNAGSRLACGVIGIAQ
# SRSF1, Q07955, UniProt Q07955, whole entry: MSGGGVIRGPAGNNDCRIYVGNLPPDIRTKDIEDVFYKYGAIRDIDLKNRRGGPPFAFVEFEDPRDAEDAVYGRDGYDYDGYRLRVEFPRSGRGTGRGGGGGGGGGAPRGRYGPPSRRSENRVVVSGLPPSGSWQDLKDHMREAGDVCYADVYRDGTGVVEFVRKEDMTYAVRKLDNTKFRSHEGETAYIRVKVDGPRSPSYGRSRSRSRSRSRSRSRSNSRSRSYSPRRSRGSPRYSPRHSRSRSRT
# EPB41L2, O43491, UniProt O43491, whole entry: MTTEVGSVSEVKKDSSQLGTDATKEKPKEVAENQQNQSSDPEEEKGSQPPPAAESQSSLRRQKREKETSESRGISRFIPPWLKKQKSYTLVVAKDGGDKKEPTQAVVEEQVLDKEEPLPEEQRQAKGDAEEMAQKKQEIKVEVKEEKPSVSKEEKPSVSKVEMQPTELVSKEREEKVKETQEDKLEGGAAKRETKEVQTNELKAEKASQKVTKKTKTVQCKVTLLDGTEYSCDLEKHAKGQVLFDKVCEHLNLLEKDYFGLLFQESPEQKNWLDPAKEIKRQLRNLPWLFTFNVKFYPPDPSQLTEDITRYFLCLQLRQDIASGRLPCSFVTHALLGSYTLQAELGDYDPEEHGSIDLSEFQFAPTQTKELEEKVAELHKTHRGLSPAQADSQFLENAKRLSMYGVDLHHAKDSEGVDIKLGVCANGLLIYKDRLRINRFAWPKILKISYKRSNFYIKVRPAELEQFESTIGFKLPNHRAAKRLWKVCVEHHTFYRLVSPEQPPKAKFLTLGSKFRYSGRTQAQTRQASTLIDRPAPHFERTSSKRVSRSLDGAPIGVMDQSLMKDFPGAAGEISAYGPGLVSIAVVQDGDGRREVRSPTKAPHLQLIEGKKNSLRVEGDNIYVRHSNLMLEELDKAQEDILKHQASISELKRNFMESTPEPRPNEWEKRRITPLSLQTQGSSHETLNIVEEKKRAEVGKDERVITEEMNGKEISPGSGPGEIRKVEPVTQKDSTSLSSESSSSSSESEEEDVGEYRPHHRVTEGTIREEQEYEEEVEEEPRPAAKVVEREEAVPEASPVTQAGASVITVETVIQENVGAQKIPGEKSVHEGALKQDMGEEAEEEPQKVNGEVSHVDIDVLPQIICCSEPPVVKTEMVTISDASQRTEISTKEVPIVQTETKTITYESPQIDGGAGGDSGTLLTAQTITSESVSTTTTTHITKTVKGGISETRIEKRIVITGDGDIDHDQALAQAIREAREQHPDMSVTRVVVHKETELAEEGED
# The list shows a part of the results. Only hits are listed; about a third recur on repeated control peptides.
# How the values were obtained:
# Assay in all cases: PRISMA enrichment of interactor (LFQ) in peptide spot vs all other peptide spots (log2 fold change); higher = stronger / more specific binding of the interactor to the peptide
# [1] = target: ALDH4A1, P30038
# Procedure: (§1)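 PRISMA: 15-aa overlapping tiles (offset 8 aa) of 60 microproteins, plus SOS1/GLUT1 control peptides, were spot-synthesized on cellulose membranes in triplicate. Membranes were incubated with benzonase-treated HEK293T lysate, and bound proteins were identified by LC-MS/MS with LFQ. Enrichment is the log2 fold change of each protein in one spot versus all other spots. Only interactors passing the significance cutoff are listed.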
# [2] = target: ANP32A, P39687
# Procedure: as §1
# [3] = target: APRT, P07741
# Procedure: as §1
# [4] = target: C11orf58, O00193
# Procedure: as §1
# [5] = target: C1QBP, Q07021
# Procedure: as §1
# [6] = target: CAMP, P49913
# Procedure: as §1
# [7] = target: CDKN2AIP, Q9NXV6
# Procedure: as §1
# [8] = target: CFDP1, Q9UEE9
# Procedure: as §1
# [9] = target: DDX56, Q9NY93
# Procedure: as §1
# [10] = target: FAM98B, Q52LJ0
# Procedure: as §1
# [11] = target: GOLIM4, O00461
# Procedure: as §1
# [12] = target: HDGFL2, Q7Z4V5
# Procedure: as §1
# [13] = target: LSM14A, Q8ND56
# Procedure: as §1
# [14] = target: MRPL27, Q9P0M9
# Procedure: as §1
# [15] = target: NCL, P19338
# Procedure: as §1
# [16] = target: NME4, O00746
# Procedure: as §1
# [17] = substrate: NOSIP, Q9Y314
# Procedure: as §1
# [18] = target: PPP1R14A, Q96A00
# Procedure: as §1
# [19] = target: PYCR3, Q53H96
# Procedure: as §1
# [20] = target: SBNO1, A3KN83
# Procedure: as §1
# [21] = target: SET, Q01105
# Procedure: as §1
# [22] = target: SOD1, P00441
# Procedure: as §1
# [23] = target: SRSF1, Q07955
# Procedure: as §1
# [24] = target: SRSF2, Q01130
# Procedure: as §1
# [25] = target: SRSF5, Q13243
# Procedure: as §1
# [26] = target: SRSF6, Q13247
# Procedure: as §1
# [27] = target: SRSF7, Q16629
# Procedure: as §1
# [28] = target: ARL6IP4, Q66PJ3
# Procedure: as §1
# [29] = target: CCDC77, Q9BR77
# Procedure: as §1
# [30] = target: CDC5L, Q99459
# Procedure: as §1
# [31] = target: CEP290, O15078
# Procedure: as §1
# [32] = target: DDX52, Q9Y2R4
# Procedure: as §1
# [33] = target: EHD1, Q9H4M9
# Procedure: as §1
# [34] = target: ELOA, Q14241
# Procedure: as §1
# [35] = target: EPB41L2, O43491
# Procedure: as §1
# [36] = target: FIP1L1, Q6UN15
# Procedure: as §1
# [37] = target: HACD2, Q6Y1H2
# Procedure: as §1
# [38] = target: HNRNPD, Q14103
# Procedure: as §1
# [39] = target: HSPA5, P11021
# Procedure: as §1
# [40] = target: NAA35, Q5VZE5
# Procedure: as §1
# [41] = target: NUP107, P57740
# Procedure: as §1
# [42] = target: PFKP, Q01813
# Procedure: as §1
# [43] = target: PGRMC1, O00264
# Procedure: as §1
# [44] = target: POLD2, P49005
# Procedure: as §1
# [45] = target: PPAN-P2RY11
# Procedure: as §1
# [46] = target: RBM10
# Procedure: as §1
# [47] = target: RBM26, Q5T8P6
# Procedure: as §1
# [48] = target: RBM6, P78332
# Procedure: as §1
# [49] = target: SNU13, P55769
# Procedure: as §1
# [50] = target: TAB2, Q9NYJ8
# Procedure: as §1
# [51] = target: TRIP13, Q15645
# Procedure: as §1
# [52] = target: VIRMA, Q69YN4
# Procedure: as §1
# [53] = target: WDR55, Q9H6Y2
# Procedure: as §1
binder,measurement,setting,value
EGRRRAASKDVPRDP [PVT1],PRISMA enrichment of interactor (log2),[1],5.42
same,PRISMA enrichment of interactor (log2),[2],7.77
same,PRISMA enrichment of interactor (log2),[3],4.61
same,PRISMA enrichment of interactor (log2),[4],4.46
same,PRISMA enrichment of interactor (log2),[5],7.12
same,PRISMA enrichment of interactor (log2),[6],6.81
same,PRISMA enrichment of interactor (log2),[7],7.05
same,PRISMA enrichment of interactor (log2),[8],4.43
same,PRISMA enrichment of interactor (log2),[9],5.33
same,PRISMA enrichment of interactor (log2),[10],9.17
same,PRISMA enrichment of interactor (log2),[11],4.56
same,PRISMA enrichment of interactor (log2),[12],5.25
same,PRISMA enrichment of interactor (log2),[13],5.01
same,PRISMA enrichment of interactor (log2),[14],7.12
same,PRISMA enrichment of interactor (log2),[15],5.73
same,PRISMA enrichment of interactor (log2),[16],5.19
same,PRISMA enrichment of interactor (log2),[17],5.12
same,PRISMA enrichment of interactor (log2),[18],6.11
same,PRISMA enrichment of interactor (log2),[19],7.74
same,PRISMA enrichment of interactor (log2),[20],4.2
same,PRISMA enrichment of interactor (log2),[21],7.63
same,PRISMA enrichment of interactor (log2),[22],6.83
same,PRISMA enrichment of interactor (log2),[23],6.24
same,PRISMA enrichment of interactor (log2),[24],6.82
same,PRISMA enrichment of interactor (log2),[25],5.42
same,PRISMA enrichment of interactor (log2),[26],5.67
same,PRISMA enrichment of interactor (log2),[27],6.66
YPSVLENRARLLPLC [LINC01128],PRISMA enrichment of interactor (log2),[1],6.55
same,PRISMA enrichment of interactor (log2),[28],5.4
same,PRISMA enrichment of interactor (log2),[29],5.23
same,PRISMA enrichment of interactor (log2),[30],6.04
same,PRISMA enrichment of interactor (log2),[31],5.2
same,PRISMA enrichment of interactor (log2),[32],5.1
same,PRISMA enrichment of interactor (log2),[33],5.36
same,PRISMA enrichment of interactor (log2),[34],4.23
same,PRISMA enrichment of interactor (log2),[35],4.58
same,PRISMA enrichment of interactor (log2),[36],6.95
same,PRISMA enrichment of interactor (log2),[37],5.34
same,PRISMA enrichment of interactor (log2),[38],6.51
same,PRISMA enrichment of interactor (log2),[39],6.24
same,PRISMA enrichment of interactor (log2),[40],4.81
same,PRISMA enrichment of interactor (log2),[41],6.76
same,PRISMA enrichment of interactor (log2),[42],5.41
same,PRISMA enrichment of interactor (log2),[43],4.99
same,PRISMA enrichment of interactor (log2),[44],4.03
same,PRISMA enrichment of interactor (log2),[45],4.66
same,PRISMA enrichment of interactor (log2),[46],4.84
same,PRISMA enrichment of interactor (log2),[47],5.62
same,PRISMA enrichment of interactor (log2),[48],4.51
same,PRISMA enrichment of interactor (log2),[49],6.12
same,PRISMA enrichment of interactor (log2),[50],6.56
same,PRISMA enrichment of interactor (log2),[51],4.5
same,PRISMA enrichment of interactor (log2),[52],5.36
same,PRISMA enrichment of interactor (log2),[53],5.61

# 4 entries from above, as tab-separated lines:
binder	measurement	setting	value
YPSVLENRARLLPLC [LINC01128]	PRISMA enrichment of interactor (log2)	[45]	4.66
same	PRISMA enrichment of interactor (log2)	[46]	4.84
same	PRISMA enrichment of interactor (log2)	[47]	5.62
same	PRISMA enrichment of interactor (log2)	[48]	4.51
